Record: PubChem BioAssay AID1224826 (NIAID, 2016)

Screen: 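Genes that change LPS-induced Tnf promoter activity in mouse macrophages when knocked down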 (primary screen)
Cells: RAW264.7 G9 macrophages from mouse bearing reporters for p65 (GFP) and the Tnf promoter (mCherry)
Reagents: siRNA pool against mouse genes, 100 nM
Duration: 16 h of LPS stimulation, after 2 days of siRNA transfection
Challenge: bacterial lipopolysaccharide (Salmonella minnesota R595), 10 ng/ml
Read-out: 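Nuclear mCherry signal of the Tnf promoter reporter measured by imaging after background removal, scaled to each plate median and turned into robust z-scores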
Scale: Tnf reporter robust z-score: higher = stronger Tnf promoter reporter signal after LPS; Tnf reporter intensity: higher = stronger Tnf promoter reporter signal
Call rule: 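Called active when robust z-score is at most -1.3, matching the median of the Tlr4 knock-down control, or over 3; control wells and wells with under 50 cells never active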
Calls: active = Tnf reporter clearly lowered or raised; inactive = no clear change in Tnf reporter
In all, the deposit lists about 17,000 reagents; this is an unselected part. About 1,110 of all reagents (6.6%) count as active. 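Active means lowered or raised reporter signal; replicate intensities are raw and not normalised per plate.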 Entries without a mark were called inactive. Further read-outs or replicates are left out here. No sequences are given here.

gene symbol	Tnf reporter robust z-score	fewer than 50 cells in well	Tnf reporter intensity, replicate 1
Pex12	-0.94	enough cells in well	183
1810009J06Rik	0.48	enough cells in well	290
Frs3	0.45	enough cells in well	306
Scnn1a	-0.2	enough cells in well	282
Clec9a	-0.97	enough cells in well	122
Kirrel3		fewer than 50 cells per well; well left out of calls	218
Bpifa2	-1.39 (active)	enough cells in well	74.1
Magea7-ps	0.31	enough cells in well	218
Cdc6	0.71	enough cells in well	301
Csmd1	-0.55	enough cells in well	124

Laid out differently: results already given.
gene symbol | Tnf reporter robust z-score | fewer than 50 cells in well | Tnf reporter intensity, replicate 1
Bpifa2 | -1.39 (active) | enough cells in well | 74.1
Magea7-ps | 0.31 | enough cells in well | 218
Cdc6 | 0.71 | enough cells in well | 301

The list goes on.
gene symbol	Tnf reporter robust z-score	fewer than 50 cells in well	Tnf reporter intensity, replicate 1
Lhfpl4	-1.55 (active)	enough cells in well	92.5
Clp1	-0.11	enough cells in well	222
Ap3d1	-1.01	enough cells in well	85.4
Dcaf5	0.21	enough cells in well	101
Prpf18	0.05	enough cells in well	153
Gimap4	-0.19	enough cells in well	188
Sftpc	-0.12	enough cells in well	242
Vmn1r4	1.9	enough cells in well	189
Notch2	-0.49	enough cells in well	243
Adam19	1.04	enough cells in well	324
Eif3f	-1.39 (active)	enough cells in well	123
Tspan12		fewer than 50 cells per well; well left out of calls	92.9
Rnase4	2.16	enough cells in well	216
Trappc9		fewer than 50 cells per well; well left out of calls	155
